Drawing on patent US20230382979A1, this text covers binding for one molecule.

The experiment concerns the target human coronavirus HCOV-229E (human coronavirus 229E). Briefly: dose-response ELISA on coated spike antigen.

Results are given in words; binding and its absence hold for the method and conditions named.

B1: antibody 1823 (antibody, V domains shown)
VH: EVQLVESGGGLVKPGGSLRLSCVASGFSFGLYTMNWVRQAPGKGLEWVSYISSSTSYKYYADSVKGRVSVSRDNAKNSLYLQLNGLRVEDTAVYYCARDGYCPNGICTYYGMDVWGQGTTVTVSA
VL: EIVMTQSPATLSVSPGERATLSCRASQSVSSNLAWYQQKPGQAPRLLIYGASTRATGIPARFSGSGSGTEFTLTITGLQSEDFAVYYCQQYDKWPPAYSFGQGTKVEIK
As to B1, the binding entry is on record as “no binding (tested: 10000 ng/ml)”.
